These are yes or no findings as the source states them, for the method shown. Binding seen in cells or lysates may run through a third protein. Binding calls can cover weak binding; strength is not graded here. Sequences can lack the tags named with a protein.
target: HA-Dvl2 (Dishevelled 2); assay: co-IP; HEK293T cells co-transfected with tGFP-PTK7 (WT or variants) and HA-Dvl2 or HA-Vangl2; lysed in RIPA buffer 48 hr after transfection; anti-HA antibody with protein G beads overnight at 4°C; three washes with RIPA buffer; immunoblot with anti-tGFP or anti-HA

| binding | Binder |
| --- | --- |
| binds | tGFP-PTK7 p.Thr186Met (receptor, UniProt Q13308-1 31-1070) AIVFIKQPSSQDALQGRRALLRCEVEAPGPVHVYWLLDGAPVQDTERRFAQGSSLSFAAVDRLQDSGTFQCVARDDVTGEEARSANASFNIKWIEAGPVVLKHPASEAEIQPQTQVTLRCHIDGHPRPTYQWFRDGTPLSDGQSNHTVSSKERNLMLRPAGPEHSGLYSCCAHSAFGQACSSQNFTLSIADESFARVVLAPQDVVVARYEEAMFHCQFSAQPPPSLQWLFEDETPITNRSRPPHLRRATVFANGSLLLTQVRPRNAGIYRCIGQGQRGPPIILEATLHLAEIEDMPLFEPRVFTAGSEERVTCLPPKGLPEPSVWWEHAGVRLPTHGRVYQKGHELVLANIAESDAGVYTCHAANLAGQRRQDVNITVATVPSWLKKPQDSQLEEGKPGYLDCLTQATPKPTVVWYRNQMLISEDSRFEVFKNGTLRINSVEVYDGTWYRCMSSTPAGSIEAQARVQVLEKLKFTPPPQPQQCMEFDKEATVPCSATGREKPTIKWERADGSSLPEWVTDNAGTLHFARVTRDDAGNYTCIASNGPQGQIRAHVQLTVAVFITFKVEPERTTVYQGHTALLQCEAQGDPKPLIQWKGKDRILDPTKLGPRMHIFQNGSLVIHDVAPEDSGRYTCIAGNSCNIKHTEAPLYVVDKPVPEESEGPGSPPPYKMIQTIGLSVGAAVAYIIAVLGLMFYCKKRCKAKRLQKQPEGEEPEMECLNGGPLQNGQPSAEIQEEVALTSLGSGPAATNKRHSTSDKMHFPRSSLQPITTLGKSEFGEVFLAKAQGLEEGVAETLVLVKSLQSKDEQQQLDFRRELEMFGKLNHANVVRLLGLCREAEPHYMVLEYVDLGDLKQFLRISKSKDEKLKSQPLSTKQKVALCTQVALGMEHLSNNRFVHKDLAARNCLVSAQRQVKVSALGLSKDVYNSEYYHFRQAWVPLRWMSPEAILEGDFSTKSDVWAFGVLMWEVFTHGEMPHGGQADDEVLADLQAGKARLPQPEGCPSKLYRLMQRCWALSPKDRPSFSEIASALGDSTVDSKP |
| binds | tGFP-PTK7 p.Tyr725Phe (receptor, UniProt Q13308-1 31-1070) AIVFIKQPSSQDALQGRRALLRCEVEAPGPVHVYWLLDGAPVQDTERRFAQGSSLSFAAVDRLQDSGTFQCVARDDVTGEEARSANASFNIKWIEAGPVVLKHPASEAEIQPQTQVTLRCHIDGHPRPTYQWFRDGTPLSDGQSNHTVSSKERNLTLRPAGPEHSGLYSCCAHSAFGQACSSQNFTLSIADESFARVVLAPQDVVVARYEEAMFHCQFSAQPPPSLQWLFEDETPITNRSRPPHLRRATVFANGSLLLTQVRPRNAGIYRCIGQGQRGPPIILEATLHLAEIEDMPLFEPRVFTAGSEERVTCLPPKGLPEPSVWWEHAGVRLPTHGRVYQKGHELVLANIAESDAGVYTCHAANLAGQRRQDVNITVATVPSWLKKPQDSQLEEGKPGYLDCLTQATPKPTVVWYRNQMLISEDSRFEVFKNGTLRINSVEVYDGTWYRCMSSTPAGSIEAQARVQVLEKLKFTPPPQPQQCMEFDKEATVPCSATGREKPTIKWERADGSSLPEWVTDNAGTLHFARVTRDDAGNYTCIASNGPQGQIRAHVQLTVAVFITFKVEPERTTVYQGHTALLQCEAQGDPKPLIQWKGKDRILDPTKLGPRMHIFQNGSLVIHDVAPEDSGRYTCIAGNSCNIKHTEAPLYVVDKPVPEESEGPGSPPPYKMIQTIGLSVGAAVAYIIAVLGLMFFCKKRCKAKRLQKQPEGEEPEMECLNGGPLQNGQPSAEIQEEVALTSLGSGPAATNKRHSTSDKMHFPRSSLQPITTLGKSEFGEVFLAKAQGLEEGVAETLVLVKSLQSKDEQQQLDFRRELEMFGKLNHANVVRLLGLCREAEPHYMVLEYVDLGDLKQFLRISKSKDEKLKSQPLSTKQKVALCTQVALGMEHLSNNRFVHKDLAARNCLVSAQRQVKVSALGLSKDVYNSEYYHFRQAWVPLRWMSPEAILEGDFSTKSDVWAFGVLMWEVFTHGEMPHGGQADDEVLADLQAGKARLPQPEGCPSKLYRLMQRCWALSPKDRPSFSEIASALGDSTVDSKP |

Further lines, the binder ahead of its results:

| Binder | binding |
| --- | --- |
| tGFP-PTK7 p.Arg271Cys (receptor, UniProt Q13308-1 31-1070) AIVFIKQPSSQDALQGRRALLRCEVEAPGPVHVYWLLDGAPVQDTERRFAQGSSLSFAAVDRLQDSGTFQCVARDDVTGEEARSANASFNIKWIEAGPVVLKHPASEAEIQPQTQVTLRCHIDGHPRPTYQWFRDGTPLSDGQSNHTVSSKERNLTLRPAGPEHSGLYSCCAHSAFGQACSSQNFTLSIADESFARVVLAPQDVVVARYEEAMFHCQFSAQPPPSLQWLFEDETPITNRSCPPHLRRATVFANGSLLLTQVRPRNAGIYRCIGQGQRGPPIILEATLHLAEIEDMPLFEPRVFTAGSEERVTCLPPKGLPEPSVWWEHAGVRLPTHGRVYQKGHELVLANIAESDAGVYTCHAANLAGQRRQDVNITVATVPSWLKKPQDSQLEEGKPGYLDCLTQATPKPTVVWYRNQMLISEDSRFEVFKNGTLRINSVEVYDGTWYRCMSSTPAGSIEAQARVQVLEKLKFTPPPQPQQCMEFDKEATVPCSATGREKPTIKWERADGSSLPEWVTDNAGTLHFARVTRDDAGNYTCIASNGPQGQIRAHVQLTVAVFITFKVEPERTTVYQGHTALLQCEAQGDPKPLIQWKGKDRILDPTKLGPRMHIFQNGSLVIHDVAPEDSGRYTCIAGNSCNIKHTEAPLYVVDKPVPEESEGPGSPPPYKMIQTIGLSVGAAVAYIIAVLGLMFYCKKRCKAKRLQKQPEGEEPEMECLNGGPLQNGQPSAEIQEEVALTSLGSGPAATNKRHSTSDKMHFPRSSLQPITTLGKSEFGEVFLAKAQGLEEGVAETLVLVKSLQSKDEQQQLDFRRELEMFGKLNHANVVRLLGLCREAEPHYMVLEYVDLGDLKQFLRISKSKDEKLKSQPLSTKQKVALCTQVALGMEHLSNNRFVHKDLAARNCLVSAQRQVKVSALGLSKDVYNSEYYHFRQAWVPLRWMSPEAILEGDFSTKSDVWAFGVLMWEVFTHGEMPHGGQADDEVLADLQAGKARLPQPEGCPSKLYRLMQRCWALSPKDRPSFSEIASALGDSTVDSKP | binds |
| tGFP-PTK7 p.Arg294His (receptor, UniProt Q13308-1 31-1070) AIVFIKQPSSQDALQGRRALLRCEVEAPGPVHVYWLLDGAPVQDTERRFAQGSSLSFAAVDRLQDSGTFQCVARDDVTGEEARSANASFNIKWIEAGPVVLKHPASEAEIQPQTQVTLRCHIDGHPRPTYQWFRDGTPLSDGQSNHTVSSKERNLTLRPAGPEHSGLYSCCAHSAFGQACSSQNFTLSIADESFARVVLAPQDVVVARYEEAMFHCQFSAQPPPSLQWLFEDETPITNRSRPPHLRRATVFANGSLLLTQVRPHNAGIYRCIGQGQRGPPIILEATLHLAEIEDMPLFEPRVFTAGSEERVTCLPPKGLPEPSVWWEHAGVRLPTHGRVYQKGHELVLANIAESDAGVYTCHAANLAGQRRQDVNITVATVPSWLKKPQDSQLEEGKPGYLDCLTQATPKPTVVWYRNQMLISEDSRFEVFKNGTLRINSVEVYDGTWYRCMSSTPAGSIEAQARVQVLEKLKFTPPPQPQQCMEFDKEATVPCSATGREKPTIKWERADGSSLPEWVTDNAGTLHFARVTRDDAGNYTCIASNGPQGQIRAHVQLTVAVFITFKVEPERTTVYQGHTALLQCEAQGDPKPLIQWKGKDRILDPTKLGPRMHIFQNGSLVIHDVAPEDSGRYTCIAGNSCNIKHTEAPLYVVDKPVPEESEGPGSPPPYKMIQTIGLSVGAAVAYIIAVLGLMFYCKKRCKAKRLQKQPEGEEPEMECLNGGPLQNGQPSAEIQEEVALTSLGSGPAATNKRHSTSDKMHFPRSSLQPITTLGKSEFGEVFLAKAQGLEEGVAETLVLVKSLQSKDEQQQLDFRRELEMFGKLNHANVVRLLGLCREAEPHYMVLEYVDLGDLKQFLRISKSKDEKLKSQPLSTKQKVALCTQVALGMEHLSNNRFVHKDLAARNCLVSAQRQVKVSALGLSKDVYNSEYYHFRQAWVPLRWMSPEAILEGDFSTKSDVWAFGVLMWEVFTHGEMPHGGQADDEVLADLQAGKARLPQPEGCPSKLYRLMQRCWALSPKDRPSFSEIASALGDSTVDSKP | binds |
| tGFP-PTK7 p.Ala856Thr (receptor, UniProt Q13308-1 31-1070) AIVFIKQPSSQDALQGRRALLRCEVEAPGPVHVYWLLDGAPVQDTERRFAQGSSLSFAAVDRLQDSGTFQCVARDDVTGEEARSANASFNIKWIEAGPVVLKHPASEAEIQPQTQVTLRCHIDGHPRPTYQWFRDGTPLSDGQSNHTVSSKERNLTLRPAGPEHSGLYSCCAHSAFGQACSSQNFTLSIADESFARVVLAPQDVVVARYEEAMFHCQFSAQPPPSLQWLFEDETPITNRSRPPHLRRATVFANGSLLLTQVRPRNAGIYRCIGQGQRGPPIILEATLHLAEIEDMPLFEPRVFTAGSEERVTCLPPKGLPEPSVWWEHAGVRLPTHGRVYQKGHELVLANIAESDAGVYTCHAANLAGQRRQDVNITVATVPSWLKKPQDSQLEEGKPGYLDCLTQATPKPTVVWYRNQMLISEDSRFEVFKNGTLRINSVEVYDGTWYRCMSSTPAGSIEAQARVQVLEKLKFTPPPQPQQCMEFDKEATVPCSATGREKPTIKWERADGSSLPEWVTDNAGTLHFARVTRDDAGNYTCIASNGPQGQIRAHVQLTVAVFITFKVEPERTTVYQGHTALLQCEAQGDPKPLIQWKGKDRILDPTKLGPRMHIFQNGSLVIHDVAPEDSGRYTCIAGNSCNIKHTEAPLYVVDKPVPEESEGPGSPPPYKMIQTIGLSVGAAVAYIIAVLGLMFYCKKRCKAKRLQKQPEGEEPEMECLNGGPLQNGQPSAEIQEEVALTSLGSGPAATNKRHSTSDKMHFPRSSLQPITTLGKSEFGEVFLAKAQGLEEGVAETLVLVKSLQSKDEQQQLDFRRELEMFGKLNHTNVVRLLGLCREAEPHYMVLEYVDLGDLKQFLRISKSKDEKLKSQPLSTKQKVALCTQVALGMEHLSNNRFVHKDLAARNCLVSAQRQVKVSALGLSKDVYNSEYYHFRQAWVPLRWMSPEAILEGDFSTKSDVWAFGVLMWEVFTHGEMPHGGQADDEVLADLQAGKARLPQPEGCPSKLYRLMQRCWALSPKDRPSFSEIASALGDSTVDSKP | binds |
| tGFP-PTK7 p.Arg630Ser (receptor, UniProt Q13308-1 31-1070) AIVFIKQPSSQDALQGRRALLRCEVEAPGPVHVYWLLDGAPVQDTERRFAQGSSLSFAAVDRLQDSGTFQCVARDDVTGEEARSANASFNIKWIEAGPVVLKHPASEAEIQPQTQVTLRCHIDGHPRPTYQWFRDGTPLSDGQSNHTVSSKERNLTLRPAGPEHSGLYSCCAHSAFGQACSSQNFTLSIADESFARVVLAPQDVVVARYEEAMFHCQFSAQPPPSLQWLFEDETPITNRSRPPHLRRATVFANGSLLLTQVRPRNAGIYRCIGQGQRGPPIILEATLHLAEIEDMPLFEPRVFTAGSEERVTCLPPKGLPEPSVWWEHAGVRLPTHGRVYQKGHELVLANIAESDAGVYTCHAANLAGQRRQDVNITVATVPSWLKKPQDSQLEEGKPGYLDCLTQATPKPTVVWYRNQMLISEDSRFEVFKNGTLRINSVEVYDGTWYRCMSSTPAGSIEAQARVQVLEKLKFTPPPQPQQCMEFDKEATVPCSATGREKPTIKWERADGSSLPEWVTDNAGTLHFARVTRDDAGNYTCIASNGPQGQIRAHVQLTVAVFITFKVEPERTTVYQGHTALLQCEAQGDPKPLIQWKGKDSILDPTKLGPRMHIFQNGSLVIHDVAPEDSGRYTCIAGNSCNIKHTEAPLYVVDKPVPEESEGPGSPPPYKMIQTIGLSVGAAVAYIIAVLGLMFYCKKRCKAKRLQKQPEGEEPEMECLNGGPLQNGQPSAEIQEEVALTSLGSGPAATNKRHSTSDKMHFPRSSLQPITTLGKSEFGEVFLAKAQGLEEGVAETLVLVKSLQSKDEQQQLDFRRELEMFGKLNHANVVRLLGLCREAEPHYMVLEYVDLGDLKQFLRISKSKDEKLKSQPLSTKQKVALCTQVALGMEHLSNNRFVHKDLAARNCLVSAQRQVKVSALGLSKDVYNSEYYHFRQAWVPLRWMSPEAILEGDFSTKSDVWAFGVLMWEVFTHGEMPHGGQADDEVLADLQAGKARLPQPEGCPSKLYRLMQRCWALSPKDRPSFSEIASALGDSTVDSKP | binds |

Source: paper PMC6465732
